These are yes or no findings as the source states them, for the method shown. Binding seen in cells or lysates may run through a third protein. Here binding means that the protein was enriched with, or labelled near, the bait; the list need not be complete.
Biological target: MR1-GFP (MHC class I related protein-1 fused to GFP) (UniProt Q95460)
Assay: affinity purification with mass spectrometry; HF cells expressing MR1-GFP or control GFP infected with HCMV for 48 h; proteins immuno-affinity isolated using the GFP tag, interacting partners identified by mass spectrometry

The chains behind the UniProt entries cited, without tags or fusion partners. Residues count along the entry.
UniProt Q95460, residues 23-341: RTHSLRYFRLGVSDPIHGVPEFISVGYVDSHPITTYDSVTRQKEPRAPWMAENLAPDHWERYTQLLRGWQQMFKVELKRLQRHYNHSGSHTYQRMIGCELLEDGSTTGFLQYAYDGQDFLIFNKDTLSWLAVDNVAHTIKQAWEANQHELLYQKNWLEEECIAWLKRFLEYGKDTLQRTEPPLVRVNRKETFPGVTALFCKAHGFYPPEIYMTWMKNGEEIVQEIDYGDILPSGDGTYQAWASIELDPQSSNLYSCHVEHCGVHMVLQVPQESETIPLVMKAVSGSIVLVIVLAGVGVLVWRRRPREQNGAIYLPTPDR
UniProt P09729, residues 28-247: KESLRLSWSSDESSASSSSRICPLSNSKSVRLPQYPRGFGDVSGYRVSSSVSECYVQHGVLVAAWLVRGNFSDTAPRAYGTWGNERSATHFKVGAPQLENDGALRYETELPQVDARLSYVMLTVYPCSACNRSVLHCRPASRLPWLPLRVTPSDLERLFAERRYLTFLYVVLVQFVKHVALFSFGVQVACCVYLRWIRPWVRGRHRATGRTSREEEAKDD

Question: “HCMV glycoprotein gpUS9 (US9 gene product) (from UniProt P09729 28-247)” was tested. Which binding did it give?
Answer: binds

Source: article PMC9950634
